1 substance from PMC3125270 can be followed below.

Results are given in words; binding and its absence hold for the method and conditions named. Binding seen in cells or lysates may run through a third protein. Binding can be weak; no strength is given. Sequences can lack the tags named with a protein.

The assay deals with T1, N-Strep/Flag-Her3, full length (zebrafish) (UniProt Q90465).
T1 sequence: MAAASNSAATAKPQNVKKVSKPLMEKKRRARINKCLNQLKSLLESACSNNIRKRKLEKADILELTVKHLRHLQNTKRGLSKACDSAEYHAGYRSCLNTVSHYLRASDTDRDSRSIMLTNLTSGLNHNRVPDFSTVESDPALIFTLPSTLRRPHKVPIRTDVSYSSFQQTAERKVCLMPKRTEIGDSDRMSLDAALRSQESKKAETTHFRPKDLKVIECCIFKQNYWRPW
Nature of the assay: pull-down; co-affinity purification: N-SF-Her3 and myc-Her8a co-expressed in HEK293T; cleared lysate (TBS, 0.5% NP-40) on Strep-Tactin resin 2 h, eluted with desthiobiotin; blots with anti-FLAG and anti-Myc.

Take “Myc-tagged Her8a, full length (zebrafish)”: the binding result is given as “binds”.
